# doi:10.1101/2023.06.23.544932
# By UniProt entry, the sequences of proteins in these tests, tags left out. Where a name states a change or a piece, a line headed by the entry shows the natural chain unless it says otherwise.
# UniProt Q8S307: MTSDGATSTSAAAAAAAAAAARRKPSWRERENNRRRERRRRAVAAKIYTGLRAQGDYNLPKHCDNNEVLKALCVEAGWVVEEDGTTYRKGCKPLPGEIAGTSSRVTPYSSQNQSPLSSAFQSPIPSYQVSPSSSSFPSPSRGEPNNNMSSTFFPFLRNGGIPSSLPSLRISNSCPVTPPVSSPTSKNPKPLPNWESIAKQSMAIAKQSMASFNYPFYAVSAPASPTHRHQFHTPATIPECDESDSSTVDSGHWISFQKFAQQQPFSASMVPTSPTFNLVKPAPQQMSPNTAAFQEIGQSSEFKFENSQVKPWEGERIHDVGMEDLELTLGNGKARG
# UniProt F4JBZ1: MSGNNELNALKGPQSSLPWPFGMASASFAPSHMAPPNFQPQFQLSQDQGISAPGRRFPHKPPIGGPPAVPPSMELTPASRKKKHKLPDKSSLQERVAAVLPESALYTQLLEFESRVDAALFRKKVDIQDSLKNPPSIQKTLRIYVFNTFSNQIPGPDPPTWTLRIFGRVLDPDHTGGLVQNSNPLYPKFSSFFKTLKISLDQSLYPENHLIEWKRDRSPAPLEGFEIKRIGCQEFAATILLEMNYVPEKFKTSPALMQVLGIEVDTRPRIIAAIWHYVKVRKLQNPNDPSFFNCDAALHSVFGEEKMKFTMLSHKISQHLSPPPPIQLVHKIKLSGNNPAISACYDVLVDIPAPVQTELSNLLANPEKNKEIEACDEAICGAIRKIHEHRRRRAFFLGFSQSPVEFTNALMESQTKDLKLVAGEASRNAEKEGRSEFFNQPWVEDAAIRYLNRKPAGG
# Results are given in words; binding and its absence hold for the method and conditions named. In cells and extracts the contact can be indirect. A result given as binding can be weak or reduced; the word gives no strength.
# Target: BZR1-FLAG (Arabidopsis thaliana) (UniProt Q8S307)
# Test: co-IP
row,Substance,binding
1,BROMODOMAIN-CONTAINING PROTEIN 13 (BRD13)-HA (from UniProt F4K3B4),binds
2,SWI/SNF ASSOCIATED PROTEIN 73A (SWP73A)-HA (from UniProt F4JBZ1),binds
